No constants are given. Whether binding was seen depends on the method and setting. Binding seen in cells or lysates may run through a third protein. Some entries that bind do so weakly or less than the wild type.
Target: full length human KMO tagged with RFP (flKMO-RFP) (human) (UniProt O15229)
Assay: co-IP; RFP-Trap Agarose from lysates of HEK293T cells transfected for 48 h; 10 mM Tris-HCl pH 7.5, 150 mM NaCl, 0.5 mM EDTA, 0.05% n-dodecyl β-D-maltoside; 1 h at 4 °C; blot with anti-HTT

The chains behind the UniProt entries cited, without tags or fusion partners.
UniProt O15229: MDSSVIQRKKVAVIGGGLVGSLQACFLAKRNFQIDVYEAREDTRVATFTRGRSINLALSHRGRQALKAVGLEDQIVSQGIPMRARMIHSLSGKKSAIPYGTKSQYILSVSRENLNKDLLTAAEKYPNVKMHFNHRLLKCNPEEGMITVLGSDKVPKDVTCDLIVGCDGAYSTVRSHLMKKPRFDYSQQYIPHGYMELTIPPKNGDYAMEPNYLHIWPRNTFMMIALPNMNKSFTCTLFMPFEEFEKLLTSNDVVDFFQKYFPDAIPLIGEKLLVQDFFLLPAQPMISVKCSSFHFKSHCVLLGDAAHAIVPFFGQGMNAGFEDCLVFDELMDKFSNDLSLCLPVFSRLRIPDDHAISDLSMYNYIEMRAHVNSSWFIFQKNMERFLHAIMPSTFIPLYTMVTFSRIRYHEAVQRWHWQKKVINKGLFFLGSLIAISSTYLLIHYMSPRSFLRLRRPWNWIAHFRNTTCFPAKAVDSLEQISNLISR
UniProt P42858: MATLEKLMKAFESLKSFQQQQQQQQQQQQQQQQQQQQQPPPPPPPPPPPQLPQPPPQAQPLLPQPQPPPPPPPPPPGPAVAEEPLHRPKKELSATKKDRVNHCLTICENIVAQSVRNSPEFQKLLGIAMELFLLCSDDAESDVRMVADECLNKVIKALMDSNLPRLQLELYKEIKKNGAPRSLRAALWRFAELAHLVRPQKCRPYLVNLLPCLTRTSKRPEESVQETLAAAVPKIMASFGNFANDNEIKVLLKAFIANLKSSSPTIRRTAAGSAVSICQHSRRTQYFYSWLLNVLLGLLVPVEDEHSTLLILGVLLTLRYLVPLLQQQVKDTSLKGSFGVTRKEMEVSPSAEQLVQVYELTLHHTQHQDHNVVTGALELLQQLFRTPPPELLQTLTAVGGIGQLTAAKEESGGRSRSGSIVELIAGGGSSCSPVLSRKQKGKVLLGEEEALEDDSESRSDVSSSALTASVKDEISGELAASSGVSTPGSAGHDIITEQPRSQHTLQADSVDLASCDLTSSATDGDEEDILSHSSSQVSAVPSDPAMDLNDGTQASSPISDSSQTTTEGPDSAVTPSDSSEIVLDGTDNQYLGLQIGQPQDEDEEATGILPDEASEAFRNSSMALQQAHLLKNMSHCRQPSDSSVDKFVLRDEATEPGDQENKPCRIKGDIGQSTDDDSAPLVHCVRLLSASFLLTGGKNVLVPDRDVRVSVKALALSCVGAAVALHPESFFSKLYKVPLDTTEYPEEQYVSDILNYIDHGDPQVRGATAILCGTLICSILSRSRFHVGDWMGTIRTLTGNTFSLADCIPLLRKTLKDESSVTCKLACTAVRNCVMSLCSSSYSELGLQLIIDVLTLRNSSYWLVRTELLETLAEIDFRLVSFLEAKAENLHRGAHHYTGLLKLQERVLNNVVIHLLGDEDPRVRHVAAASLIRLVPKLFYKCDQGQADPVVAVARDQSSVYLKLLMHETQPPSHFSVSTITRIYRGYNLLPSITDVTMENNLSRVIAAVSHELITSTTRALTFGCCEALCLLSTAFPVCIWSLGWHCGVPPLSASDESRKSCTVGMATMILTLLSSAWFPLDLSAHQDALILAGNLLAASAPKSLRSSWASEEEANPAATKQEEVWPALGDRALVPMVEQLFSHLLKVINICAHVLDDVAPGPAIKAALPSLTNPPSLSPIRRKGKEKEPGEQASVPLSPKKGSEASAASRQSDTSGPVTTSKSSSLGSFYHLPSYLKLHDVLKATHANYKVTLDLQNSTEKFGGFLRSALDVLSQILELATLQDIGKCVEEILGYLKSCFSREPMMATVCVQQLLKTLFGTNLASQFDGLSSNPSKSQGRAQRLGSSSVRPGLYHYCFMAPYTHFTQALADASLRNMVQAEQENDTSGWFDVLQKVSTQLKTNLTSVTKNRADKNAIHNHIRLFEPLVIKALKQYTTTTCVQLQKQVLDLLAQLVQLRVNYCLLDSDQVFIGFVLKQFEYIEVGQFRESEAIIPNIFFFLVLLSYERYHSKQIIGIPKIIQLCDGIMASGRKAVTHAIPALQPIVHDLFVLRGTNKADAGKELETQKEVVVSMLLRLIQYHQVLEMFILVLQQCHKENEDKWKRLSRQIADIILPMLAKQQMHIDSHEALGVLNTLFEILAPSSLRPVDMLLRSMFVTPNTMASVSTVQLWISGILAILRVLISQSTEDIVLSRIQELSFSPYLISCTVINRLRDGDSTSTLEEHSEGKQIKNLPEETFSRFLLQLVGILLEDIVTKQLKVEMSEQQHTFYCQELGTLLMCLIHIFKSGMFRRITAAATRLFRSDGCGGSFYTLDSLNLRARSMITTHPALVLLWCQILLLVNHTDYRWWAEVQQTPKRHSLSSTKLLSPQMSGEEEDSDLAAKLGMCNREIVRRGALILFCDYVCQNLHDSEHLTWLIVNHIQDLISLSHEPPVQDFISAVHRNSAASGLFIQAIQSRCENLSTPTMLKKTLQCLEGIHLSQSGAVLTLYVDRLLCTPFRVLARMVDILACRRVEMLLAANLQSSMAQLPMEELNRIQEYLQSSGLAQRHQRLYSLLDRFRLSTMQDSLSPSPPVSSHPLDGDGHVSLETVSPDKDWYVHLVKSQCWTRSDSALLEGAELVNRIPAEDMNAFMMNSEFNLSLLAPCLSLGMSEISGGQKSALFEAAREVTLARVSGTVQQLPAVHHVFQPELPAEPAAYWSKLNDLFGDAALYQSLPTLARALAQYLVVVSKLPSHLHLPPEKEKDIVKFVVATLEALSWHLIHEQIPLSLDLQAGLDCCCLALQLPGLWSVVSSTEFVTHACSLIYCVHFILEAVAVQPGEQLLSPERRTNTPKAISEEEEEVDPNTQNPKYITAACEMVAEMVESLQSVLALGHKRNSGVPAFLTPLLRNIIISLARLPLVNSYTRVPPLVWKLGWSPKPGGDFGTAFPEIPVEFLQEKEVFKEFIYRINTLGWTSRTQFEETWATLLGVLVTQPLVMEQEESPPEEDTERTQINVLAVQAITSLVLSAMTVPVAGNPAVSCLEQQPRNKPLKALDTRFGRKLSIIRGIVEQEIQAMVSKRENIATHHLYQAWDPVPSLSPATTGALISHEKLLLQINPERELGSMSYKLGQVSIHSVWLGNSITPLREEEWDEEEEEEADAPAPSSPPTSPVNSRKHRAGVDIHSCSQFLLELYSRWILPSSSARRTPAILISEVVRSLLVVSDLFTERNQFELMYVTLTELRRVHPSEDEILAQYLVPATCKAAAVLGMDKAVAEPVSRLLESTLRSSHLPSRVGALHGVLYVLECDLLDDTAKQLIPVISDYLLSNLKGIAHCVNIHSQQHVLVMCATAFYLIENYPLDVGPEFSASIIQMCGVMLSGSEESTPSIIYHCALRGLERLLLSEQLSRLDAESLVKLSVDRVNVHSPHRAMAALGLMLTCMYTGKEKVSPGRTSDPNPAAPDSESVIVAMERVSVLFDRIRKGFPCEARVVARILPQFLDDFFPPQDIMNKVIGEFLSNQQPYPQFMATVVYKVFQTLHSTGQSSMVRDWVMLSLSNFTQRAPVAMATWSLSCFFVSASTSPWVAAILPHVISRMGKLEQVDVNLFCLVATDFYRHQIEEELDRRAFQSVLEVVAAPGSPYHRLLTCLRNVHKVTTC

Substance: endogenous huntingtin (HTT) (from UniProt P42858 1-3142)
- binding: binds

Reference: publication PMC9496550
